Test results published in article PMC8708760.
These are yes or no findings as the source states them, for the method shown. In cells and extracts the contact can be indirect. These calls come from enrichment with a bait or labelling near it, and not all partners need be listed.

Target: BmCDK1^Flag (Bombyx mori CDK1 overexpressed by recombinant BmNPV vBm-BmCDK1) (Bombyx mori)
Test: affinity purification with mass spectrometry; BmN-SWU1 cells infected with 1 MOI of vBm-BmCDK1, lysed 48 h p.i.; IP with α-Flag monoclonal antibody on protein A+G magnetic beads, 2-3 h at room temperature, washed with PBST; mouse IgG as negative control; SDS-PAGE, silver staining, bands of three experiments combined for LC-MS/MS

B1: BmNPV IAP1 (made by the virus in infected cells) (protein, UniProt O92394 1-292)
chain: MNEDTPPFYFINTRDNFRDNIAEHVFDMLLERHGSFENYPIVNTAFINSLIVNGFKYNQVDDHVVCEYCEAEIKNWSEDECIEYAHVTLSPYCAYANKIAEHESFGDNITINAVLVKEGRPKCVYRCMSNLQSRMDTFVNFWPAALRDMITNIAEAGLFYTGRGDETVCFFCDCCVRDWHINEDAWQRHATENPQCYFVLSVKGKEFCQNAITATHVDKRDDDDDDDNNLNENVDDDIEEKYECKVCLERQRDAVLMPCRHFCVCVQCYFGLDQKCPTCRQDVTDFIKIFVV
In the case of B1, the binding is reported as “binds”.
